Laboratory results taken from paper PMC12217761.
Results are given in words; binding and its absence hold for the method and conditions named. In cells and extracts the contact can be indirect. Some results given as binding are weak or reduced against the parent protein; the word gives no strength.

Protein sequences, listed by entry. Tags and fused reporters are not part of them.
UniProt Q8CFE3: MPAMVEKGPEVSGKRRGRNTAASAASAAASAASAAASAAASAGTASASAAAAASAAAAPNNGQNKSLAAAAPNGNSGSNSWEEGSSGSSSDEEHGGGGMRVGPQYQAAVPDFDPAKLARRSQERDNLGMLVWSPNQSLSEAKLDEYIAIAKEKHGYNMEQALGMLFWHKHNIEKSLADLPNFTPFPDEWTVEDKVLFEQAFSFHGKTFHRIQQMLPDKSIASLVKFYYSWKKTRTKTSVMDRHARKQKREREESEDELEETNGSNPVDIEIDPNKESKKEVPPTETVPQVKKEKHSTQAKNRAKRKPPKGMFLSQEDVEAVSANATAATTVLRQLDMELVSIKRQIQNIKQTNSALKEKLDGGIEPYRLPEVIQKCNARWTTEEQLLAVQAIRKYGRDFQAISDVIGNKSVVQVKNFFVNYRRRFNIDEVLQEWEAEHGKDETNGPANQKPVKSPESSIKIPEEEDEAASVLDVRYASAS
UniProt P10085: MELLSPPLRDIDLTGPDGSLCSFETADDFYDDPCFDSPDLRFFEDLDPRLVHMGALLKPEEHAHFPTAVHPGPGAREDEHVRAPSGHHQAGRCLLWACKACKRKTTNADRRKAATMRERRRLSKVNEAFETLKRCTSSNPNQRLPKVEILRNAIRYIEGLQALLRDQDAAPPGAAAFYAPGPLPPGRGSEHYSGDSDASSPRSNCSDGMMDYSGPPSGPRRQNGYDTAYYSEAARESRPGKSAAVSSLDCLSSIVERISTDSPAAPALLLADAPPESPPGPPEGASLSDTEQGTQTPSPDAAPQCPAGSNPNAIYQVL

Biological target: REST Corepressor 1 (RCOR1) (mouse (endogenous in C2C12)) (UniProt Q8CFE3)
Assay: co-IP; endogenous proteins; C2C12 cells in differentiation medium for 1 day; lysates in IP buffer (10 mM Tris pH 8, 0.4% NP40, 300 mM NaCl, 10% glycerol, 1 mM DTT) diluted with one volume of dilution buffer; immunoprecipitated with anti-LSD1 antibody, anti-RCOR1 antibody or rabbit normal IgG on Dynabeads Protein G at 4 °C; immunoblotting

- binding: binds
Substance: myoblast determination protein 1 (MyoD) (from UniProt P10085 1-318)
